Patent publication US5338725A (The Research Foundation of the State University of New York, priority 1992, dated 1994)
Starred links: 1 amine or outer side, 2 acyl side, 3 side chain; linkers in the order of their positions; H or OH if unused. Suc = O=C(CCC(=O)[*:2])[*:1]

Assay: general procedure: Fmoc solid-phase peptide synthesis; DIC/HOBt
Settings: late stage modification step, acetic acid salt (crude as TFA salt)

First: (p)Pht-RGDF-OH
Second: Bda-RGDF-OH
The step yield of the first is lower: 23% yield for the first, 60% yield for the second.

First: Pda-RGDF-OH
Second: Suc-RGDF-OH
The step yield of the first is lower: 34% yield for the first, 42% yield for the second.

Same assay, conditions: whole synthesis, scale 0.05 mmol, TFA salt

In the case of (BzRGDF)2 Dac--RGDF-OH, the crude mass is reported as 72 mg.

Work on (BzRGDF)2 Dac--RGDF-OH yielded a crude yield of 80% yield.

Same assay, conditions: whole synthesis, scale 0.1 mmol, TFA salt

Compared with (RGDFPG)2 Dab--G--OH, GRGDFG--(p)Abz--GRGDF--NH2 is lower in crude mass: 138 rag for the first, 114 rag for the second.

Going from GRGDFG--(m)Abz--GRGDF--NH2 to GRGDFG--(m)Abz--GRGDF--OH, the crude mass rises from 107 rag to 114 rag.

Going from (RGDFPG)2 Dab--NH2 to GRGDSG--(m)Abz--GRGDF--NH2, the crude mass falls from 141 rag to 134 rag.

Going from (RGDFPG)2 Dab--G--OH to GRGDVG--(p)Abz--GRGDF--NH2, the crude yield rises from 87 % yield to 91% yield.

First: (GRGDFG)2 Dab--GRGDF--NH2
Second: GRGDFG--(p)Abz--GRGDF--NH2
The crude yield of the first is higher: 86% yield for the first, 84 % yield for the second.

Compared with GRGDFG--(m)Abz--GRGDF--NH2, (GRGDF)2 Orn--GRGDF--NH2 is higher in crude yield: 79 % yield for the first, 100 % yield for the second.

Going from GRGDFG--(m)Abz--GRGDF--OH to (GRGDF)2 Lys--GRGDF--NH2, the crude yield rises from 88 % yield to 100 % yield.

Going from (GRGDF)2 Orn--NH2 to GRGDFG--(p)Abz--GRGDF--OH, the crude yield falls from 100 % yield to 74 % yield.

First: (GRGDF)2 Lys--NH2
Second: (RGDFPG)2 Dab--NH2
The crude yield of the first is higher: 100 % yield for the first, 91% yield for the second.

Going from GRGDSG--(m)Abz--GRGDF--NH2 to GRGDVG--(m)Abz--GRGDF--NH2, the crude yield falls from 97 % yield to 93 % yield.

Going from GRGDVG--(p)Abz--GRGDF--NH2 to (GRGDFG)2 Dab--GRGDF--NH2, the crude mass rises from 126 mg to 160 mg.

First: (GRGDF)2 Orn--GRGDF--NH2
Second: (GRGDF)2 Lys--GRGDF--NH2
The crude mass of the first is higher: 232 mg for the first, 221 mg for the second.

First: (GRGDF)2 Orn--NH2
Second: GRGDFG--(p)Abz--GRGDF--OH
The crude mass of the first is higher: 172 mg for the first, 98 mg for the second.

Compared with (GRGDF)2 Lys--NH2, GRGDVG--(m)Abz--GRGDF--NH2 is lower in crude mass: 182 mg for the first, 127 mg for the second.
